Measured values reported in paper doi:10.1101/2022.09.01.506260.
No constants are given. Whether binding was seen depends on the method and setting. For some assays here: In cells and extracts the contact can be indirect. Some binding calls cover weakened binding; strength is not graded here. For some assays here: Sequences can lack the tags named with a protein.

Amino acid sequences for entries named in this document (tags omitted). A change or cut given only in a name is not applied to a line headed by its entry.
UniProt P46108, whole entry: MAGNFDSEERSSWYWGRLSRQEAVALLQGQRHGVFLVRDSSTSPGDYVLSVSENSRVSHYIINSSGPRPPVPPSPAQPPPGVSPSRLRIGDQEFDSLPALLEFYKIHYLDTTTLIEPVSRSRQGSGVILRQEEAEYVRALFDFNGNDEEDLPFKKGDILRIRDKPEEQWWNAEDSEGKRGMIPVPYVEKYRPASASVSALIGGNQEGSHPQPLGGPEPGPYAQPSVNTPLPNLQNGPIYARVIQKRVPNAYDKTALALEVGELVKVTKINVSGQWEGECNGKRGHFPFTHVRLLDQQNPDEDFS

Key:
[1] = target: T1, HA-tagged PEAK3^FL-S69A mutant (human) (UniProt Q6ZS72); assay: co-IP
T1 sequence: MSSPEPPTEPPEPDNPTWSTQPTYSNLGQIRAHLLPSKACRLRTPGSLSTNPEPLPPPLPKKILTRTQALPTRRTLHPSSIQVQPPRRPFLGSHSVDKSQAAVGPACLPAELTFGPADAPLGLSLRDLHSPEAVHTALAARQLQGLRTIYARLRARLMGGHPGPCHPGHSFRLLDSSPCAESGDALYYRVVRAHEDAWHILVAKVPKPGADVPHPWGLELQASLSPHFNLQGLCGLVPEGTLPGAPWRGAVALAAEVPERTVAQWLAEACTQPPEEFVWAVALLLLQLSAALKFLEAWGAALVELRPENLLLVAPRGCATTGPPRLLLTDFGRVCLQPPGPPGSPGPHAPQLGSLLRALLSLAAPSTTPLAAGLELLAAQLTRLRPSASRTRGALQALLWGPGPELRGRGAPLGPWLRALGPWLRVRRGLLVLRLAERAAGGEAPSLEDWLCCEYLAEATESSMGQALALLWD

[2] = target: T2, PEAK1^IDR1 (N-terminally truncated PEAK1, residues 1082-1746) (human) (UniProt Q9H792); assay: SEC
T2 sequence: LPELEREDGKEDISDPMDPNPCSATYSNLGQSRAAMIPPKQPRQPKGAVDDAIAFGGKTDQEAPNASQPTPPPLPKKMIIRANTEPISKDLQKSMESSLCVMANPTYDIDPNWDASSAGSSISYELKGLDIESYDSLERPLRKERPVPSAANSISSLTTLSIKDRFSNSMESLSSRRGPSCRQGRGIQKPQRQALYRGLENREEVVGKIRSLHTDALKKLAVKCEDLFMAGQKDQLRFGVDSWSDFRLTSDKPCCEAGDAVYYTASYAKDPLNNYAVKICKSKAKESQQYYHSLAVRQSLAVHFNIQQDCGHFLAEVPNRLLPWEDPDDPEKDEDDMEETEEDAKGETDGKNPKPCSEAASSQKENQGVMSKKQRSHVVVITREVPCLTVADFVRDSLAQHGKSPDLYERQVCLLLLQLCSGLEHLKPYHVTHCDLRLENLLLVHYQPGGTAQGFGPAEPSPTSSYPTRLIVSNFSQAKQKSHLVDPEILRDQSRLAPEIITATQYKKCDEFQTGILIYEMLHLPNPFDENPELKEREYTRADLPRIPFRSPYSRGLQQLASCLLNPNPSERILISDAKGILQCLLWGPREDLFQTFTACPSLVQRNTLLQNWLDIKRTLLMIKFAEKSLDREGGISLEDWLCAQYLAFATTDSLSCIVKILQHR

Substance | binding [1] | binding [2]
endogenous CrkII (HEK293) (from UniProt P46108-1 1-304) | binds | –
full length CrkII, dimer (CrkII^FL dimer) (from UniProt P46108-1 1-304) | – | binds
